# Test results as given in the supplement of paper PMC12889115.
# The list shows a part of the results. These are raw signals, not scaled to a control.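 Primary screen: polymyxin B was added at a level permeabilizing Salmonella outer membranes while sparing inner membranes. DMSO wells, both with and without polymyxin B, established maximum growth. Plate-to-plate variation meant each plate was ranked on its own, and the lowest-OD600 compounds were selected as hits.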
# Test system: Salmonella enterica serovar Typhimurium SL1344
# Experiment: bacterial growth OD600 after 18 h with compound and polymyxin B; higher = more bacterial growth (less inhibition)
# Settings: 50 µM, Mueller-Hinton broth
SMILES,bacterial growth OD600 (polymyxin B 0.75 µg/mL),bacterial growth OD600 (polymyxin B 1 µg/mL)
Cc1ccccc1-c1noc(-c2ccc(NCCn3cccn3)nc2)n1,0.149,–
CCOC(=O)C1CCN(C(=O)c2cc(NS(=O)(=O)N(C)C)cc3nc(CC(C)C)n(C)c23)CC1,0.789,–
CCN1CCN(c2ccc(C(=O)N3CCCC(c4ccccc4)CC3)cn2)CC1 (stereo unspecified),–,0.968
Cc1c(C(=O)N(C)CCc2ccccn2)sc2ncnc(NC[C@H]3C[C@@H]4C=C[C@H]3C4)c12,0.008,–
CCCCc1nc(CN2CCCC(CNC(=O)c3cc(OC)cc(OC)c3)C2)c[nH]1 (stereo unspecified),–,0.877
OC[C@@H]1CCCN1Cc1cn(-c2ccccc2)nc1-c1ccc2c(c1)OCO2,–,0.812
CCOCCCNC(=O)c1ccc(OC2CCN(S(C)(=O)=O)CC2)c(Cl)c1,0.82,–
Cc1c(CNC2CCCc3nc(-c4ccccc4)ncc32)cnn1C (stereo unspecified),0.766,–
COc1cc(CN[C@H]2CC[C@H](O)CC2)ccc1OCC(O)CN1CCCCCCC1 (stereo partly specified),–,1.08
Cc1cnc(CNC(=O)c2coc(COc3cccc(C(F)(F)F)c3)n2)cn1,–,0.899
CSCCC(=O)N1CCC2(CC1)CC2C(=O)NCCCc1ccccc1 (stereo unspecified),0.771,–
CCn1cc(CN2CCC(Oc3ccc(C(=O)NCCOC)cc3Cl)CC2)cn1,–,0.878
O=C(c1ccc(-n2cccn2)cc1)N1CCOc2c(cc(-c3cccnc3)cc2OCCc2cccs2)C1,0.464,–
CCCCc1nc2cc(C(=O)N3CCN(C)C(c4ccccc4)C3)ccc2o1 (stereo unspecified),0.827,–
CCOC(=O)C1(Cc2ccc(F)cc2F)CCCN(C(=O)c2ccsc2)C1 (stereo unspecified),–,1.09
CCn1cc(CN2CCCC2C(=O)Nc2ccc(-n3ccnc3C)cc2)c(C)n1 (stereo unspecified),0.868,–

SMILES,bacterial growth OD600 (polymyxin B 0.75 µg/mL),bacterial growth OD600 (polymyxin B 1 µg/mL)
COCCNC(=O)C1CCN(c2nc(C)c3cc(C)c(C)cc3n2)CC1,0.834,–
COCCN(C)Cc1cn(Cc2ccccc2)nc1-c1cc2ccccc2o1,–,0.949
Cc1nc(N2CCCCCCC2)ncc1C(C)NC(=O)c1cnccn1 (stereo unspecified),0.733,–
COc1cc(CC2(CCC(=O)NCc3cc4cc(Cl)ccc4[nH]3)CCC(=O)N2)ccc1F (stereo unspecified),0.881,–
Cc1nc(N2CCC(NCC3COc4ccccc4O3)CC2)nc2ccc(F)cc12 (stereo unspecified),0.01,–
COc1ccc(CC(=O)NCc2nc(-c3ccc(NC(=O)Cc4ccccc4)cc3)oc2C)cc1,0.773,–
COc1ccc(-c2noc(CN3CCCCC3c3ccc(F)cc3)n2)cc1 (stereo unspecified),–,0.561
O=C(CC1CCC(=O)N1)NCc1ccc2[nH]c3c(c2c1)CCCCC3 (stereo unspecified),–,0.914
COc1cc(Cl)cc([C@@H]2C[C@H]3CN(C4CCCC4)C(=O)[C@]34CCCN24)c1OC,–,0.004
COc1ccc(C2(CC(=O)N3CCCC(COc4ccccc4F)C3)CC(=O)N(C3CC3)C2=O)cc1 (stereo unspecified),0.753,–
COCCOC1CCN(C(=O)c2cc(COc3ccc(F)cc3F)on2)CC1,–,0.889
O=C(NC1CCCN(CCc2ccccc2)C1)c1ccc(Cl)cc1F (stereo unspecified),0.682,–
CSc1cccc(CNC2CCCN(c3ncccn3)C2)c1 (stereo unspecified),–,1.12
CCOC(=O)C1(Cc2ccc(F)cc2)CCCN(C(=O)c2ccc(OC)cc2OC)C1 (stereo unspecified),–,0.909
CC(=O)NC(C)c1cnc(N(C)C2CCCCC2)nc1C (stereo unspecified),–,0.806

# Complete entries as entered above. Values in the order: bacterial growth OD600 (polymyxin B 0.75 µg/mL)	bacterial growth OD600 (polymyxin B 1 µg/mL)
# `O=C(c1ccc(-n2cccn2)cc1)N1CCOc2c(cc(-c3cccnc3)cc2OCCc2cccs2)C1` is listed as 0.464	–
# `Cc1c(C(=O)N(C)CCc2ccccn2)sc2ncnc(NC[C@H]3C[C@@H]4C=C[C@H]3C4)c12` is listed as 0.008	–
